Laboratory results as given in patent US11567085B2, “Photo-cleavable surfactants” (Wisconsin Alumni Research Foundation, priority 2018, dated 2023).
Some entries repeat one wording, which the source may state once for all of them.

Key:
cardiac tissue proteins = assay: Azo-aided top-down proteomics of cardiac tissue extract by RPLC-MS and RPLC-MS/MS; set-up: species or system swine
Ubi [1] = assay: MS-compatibility: direct infusion ESI-MS of Ubi with 0.1% surfactant (7 T LTQ/FT-ICR); set-up: species or system bovine; details: 80% isopropanol, 14.9% water, 5% formic acid, no desalting, Azo after UV, MaSDeS after acid degradation (FIG. 2d)
[2] = test system: myoglobin, bovine serum albumin; assay: Azo-aided trypsin digestion of standard proteins
cardiac tissue lysate = assay: LC-MS compatibility comparison using cardiac tissue lysate with 0.1% surfactant; set-up: species or system swine; details: buffer exchanged (FIG. 18)
Ubi [3] = assay: MS compatibility comparison to common surfactants: Ubi with 0.1% surfactant (12 T FTICR); set-up: species or system bovine; details: cleavable surfactants degraded first (FIG. 17)

Row | Molecule | total proteoforms detected based on accurate mass (cardiac tissue proteins; 0.5% Azo extraction, combination of three LC-MS runs) | proteoforms identified by online RPLC-MS/MS (cardiac tissue proteins; 0.5% Azo extraction, one-dimensional RPLC-MS/MS, representing 171 proteins) | unique protein masses not present without surfactant (cardiac tissue proteins; swine heart tissue lysate after HEPES depletion, RPLC-MS/MS) | MS signal suppression of Ubi (Ubi [1]) | sequence coverage of myoglobin by peptide mass fingerprinting ([2]; 0.1% Azo, 1 h trypsin digest, infused without clean-up) | time for protein digest ([2]; Azo (0.1%), trypsin, sample without Azo remained intact) | top-down LC-MS compatibility / signal suppression (cardiac tissue lysate) | MS signal suppression of intact Ubi (Ubi [3])
1 | 4-hexylphenylazosulfonate | 2836 | 388 | 663 | minimal signal suppression | 89% | < 0.5 h | great top-down MS-compatibility | minimal MS protein signal suppression
2 | CCCCCCCCCCCCO[C@@H]1O[C@H](CO)[C@@H](O[C@H]2O[C@H](CO)[C@@H](O)[C@H](O)[C@H]2O)[C@H](O)[C@H]1O [DDM, n-dodecyl β-D-maltoside] | – | – | – | minimal signal suppression | – | – | great top-down MS-compatibility | minimal MS protein signal suppression
3 | C[C@@H]1CC[C@@]2(OC1)O[C@H]1[C@@H](O)[C@H]3[C@@H]4CC[C@H]5C[C@@H](O[C@@H]6O[C@H](CO)[C@H](O[C@@H]7O[C@H](CO)[C@@H](O)[C@H](O[C@@H]8OC[C@@H](O)[C@H](O)[C@H]8O)[C@H]7O[C@@H]7O[C@H](CO)[C@H](O)[C@H](O[C@@H]8O[C@H](CO)[C@@H](O)[C@H](O)[C@H]8O)[C@H]7O)[C@H](O)[C@H]6O)[C@H](O)C[C@]5(C)[C@H]4CC[C@]3(C)[C@H]1[C@@H]2C [DGT, digitonin] | – | – | – | – | – | – | to a lesser extent | minimal MS protein signal suppression
4 | CCCCCCCCO[C@@H]1O[C@H](CO)[C@@H](O)[C@H](O)[C@H]1O [OG, Octyl β-D-glucopyranoside] | – | – | – | – | – | – | great top-down MS-compatibility | minimal MS protein signal suppression
5 | CCCCCCCCCCC(OC(=O)NCCCS(=O)(=O)[O-])c1ccco1.[Na+] (stereo not shown) [PM] | – | – | – | – | – | – | significant signal suppression | significantly suppressed
6 | CCCCCCCCCCCC1(C)OCC(COCCCS(=O)(=O)[O-])O1.[Na+] (stereo not shown) [RG] | – | – | – | – | – | – | significant signal suppression | significantly suppressed
7 | CCCCCCCCCCCCOS(=O)(=O)[O-].[Na+] [SDS, sodium dodecyl sulfate] | – | – | – | completely suppressed | – | – | significant signal suppression | dramatically suppressed
